Measurements from patent publication US20230415070A1, “EUTECTIC COMPOSITIONS, METHODS AND USES THEREOF” (Universidade do Minho, priority 2020, published 2023).

Test: Sealed system extraction of cork
Design: species or system Quercus suber
Settings: Cork 0.7 g, Solvent 5 mL, 100° C. 6 hours, 3 cycles

O [H2O, water]
Sealed system Yield (extraction yield) (0% of water in NADES): 4.2% | Concentration of extract, Cork (sealed system, mextract/vsolvent): 0.0178 g/ml
